PubChem BioAssay AID1159579 – Peter MacCallum Cancer Centre – 2015
In all, the deposit lists about 2,000 reagents; this is a part drawn at random. 549 of all reagents (27%) were called active. 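Some migration ratios are negative; siRNAs with too few cells are inactive whatever their migration ratio.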 Reagents against one gene are numbered here. Not stated in the record: the time to read-out.

Purpose: 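Retest candidate lymphatic endothelial migration regulators using several independent siRNAs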 (follow-up of hits)
Cell system: human dermal lymphatic endothelial cells
Reagent: single siRNA against human genes, 25 nM
Measurement: 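Scratch wound imaging measuring area filled by moving cells plus nuclei number, averaged over two wells and scaled to mock-transfected controls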
Reading the numbers: migration relative to mock: higher = more migration into the scratch; mean nuclei count: higher = more cells remaining
Hit rule: 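a ratio of at most 0.6 or at least 1.3 marks altered migration and an active call; a mean nuclei count under 3300 forces an inactive call regardless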
Calls: active = migration changed (impaired or accelerated); inactive = no migration change, or too few cells

target | reagent | migration relative to mock | migration and cell number class | mean nuclei count | Call
PRKG2 | 1 | 0.7 | no change in migration or cell number | 5478 | inactive
PRKG2 | 2 | 0.12 | migration reduced | 4715 | active
PRKG2 | 3 | 0.7 | no change in migration or cell number | 4728 | inactive
PRKG2 | 4 | 0.57 | migration reduced | 8111 | active
DEFA3 | 1 | 0.82 | no change in migration or cell number | 5715 | inactive
DEFA3 | 2 | 0.56 | migration reduced | 5468 | active
DEFA3 | 3 | 0.62 | no change in migration or cell number | 7414 | inactive
DEFA3 | 4 | 0.73 | no change in migration or cell number | 5466 | inactive
CATSPERT | 1 | 0.78 | no change in migration or cell number | 6212 | inactive
CATSPERT | 2 | 0.53 | migration reduced | 3412 | active
CATSPERT | 3 | 1.06 | no change in migration or cell number | 6442 | inactive
CATSPERT | 4 | 0.54 | migration reduced | 5858 | active
CHSY3 | 1 | 0.62 | no change in migration or cell number | 6134 | inactive
CHSY3 | 2 | 0.36 | migration reduced | 4455 | active
CHSY3 | 3 | 0.46 | migration reduced | 3908 | active
CHSY3 | 4 | 0.9 | no change in migration or cell number | 5382 | inactive
MYL4 | 1 | 1.09 | no change in migration or cell number | 5046 | inactive
MYL4 | 2 | 0.12 | migration reduced | 3426 | active
MYL4 | 3 | 0.67 | no change in migration or cell number | 4585 | inactive
MYL4 | 4 | 1.07 | no change in migration or cell number | 5630 | inactive
FERMT3 | 1 | 0.94 | no change in migration or cell number | 6452 | inactive
FERMT3 | 2 | 0.85 | no change in migration or cell number | 6390 | inactive
FERMT3 | 3 | 1.12 | no change in migration or cell number | 6140 | inactive
FERMT3 | 4 | 0.82 | no change in migration or cell number | 4860 | inactive
TNK1 | 1 | -0.13 | migration reduced | 3832 | active
TNK1 | 2 | 0.67 | no change in migration or cell number | 6136 | inactive
TNK1 | 3 | 0.66 | no change in migration or cell number | 5948 | inactive
TNK1 | 4 | 0.92 | no change in migration or cell number | 6092 | inactive
HPDL | 1 | 0.46 | migration reduced | 5437 | active
HPDL | 2 | 0.54 | migration reduced | 5350 | active
HPDL | 3 | 1.15 | no change in migration or cell number | 6089 | inactive
HPDL | 4 | 0.6 | migration reduced | 5376 | active
CACNA2D1 | 1 | 0.62 | no change in migration or cell number | 5240 | inactive
CACNA2D1 | 2 | 0.98 | no change in migration or cell number | 5577 | inactive
CACNA2D1 | 3 | 1.07 | no change in migration or cell number | 6510 | inactive
CACNA2D1 | 4 | -0.77 | migration reduced | 3946 | active
TBCB | 1 | 1.01 | no change in migration or cell number | 5832 | inactive
TBCB | 2 | 0.66 | no change in migration or cell number | 7570 | inactive
TBCB | 3 | 0.75 | no change in migration or cell number | 5345 | inactive
TBCB | 4 | 0.91 | no change in migration or cell number | 6144 | inactive
RET | 1 | 0.4 | migration reduced | 4074 | active
RET | 2 | 0.9 | no change in migration or cell number | 6826 | inactive
RET | 3 | 0.84 | no change in migration or cell number | 5586 | inactive
RET | 4 | 0.55 | migration reduced | 5044 | active
ABCC3 | 1 | 0.38 | migration reduced | 6199 | active
ABCC3 | 2 | 0.46 | migration reduced | 5426 | active
ABCC3 | 3 | 0.91 | no change in migration or cell number | 6446 | inactive
ABCC3 | 4 | 0.62 | no change in migration or cell number | 5728 | inactive

Targets above whose target name starts with M or m:
target | reagent | migration relative to mock | migration and cell number class | mean nuclei count | Call
MYL4 | 1 | 1.09 | no change in migration or cell number | 5046 | inactive
MYL4 | 2 | 0.12 | migration reduced | 3426 | active
MYL4 | 3 | 0.67 | no change in migration or cell number | 4585 | inactive
MYL4 | 4 | 1.07 | no change in migration or cell number | 5630 | inactive
